Assay results: paper PMC7957176
Results are given in words; binding and its absence hold for the method and conditions named. For part of these data: In cells and extracts the contact can be indirect. Some binding calls cover weakened binding; strength is not graded here. For part of these data: Sequences can lack the tags named with a protein. Values belong to the molecule of their own block, whether it stands above or below them.

The chains behind the UniProt entries cited, without tags or fusion partners.
UniProt Q93009: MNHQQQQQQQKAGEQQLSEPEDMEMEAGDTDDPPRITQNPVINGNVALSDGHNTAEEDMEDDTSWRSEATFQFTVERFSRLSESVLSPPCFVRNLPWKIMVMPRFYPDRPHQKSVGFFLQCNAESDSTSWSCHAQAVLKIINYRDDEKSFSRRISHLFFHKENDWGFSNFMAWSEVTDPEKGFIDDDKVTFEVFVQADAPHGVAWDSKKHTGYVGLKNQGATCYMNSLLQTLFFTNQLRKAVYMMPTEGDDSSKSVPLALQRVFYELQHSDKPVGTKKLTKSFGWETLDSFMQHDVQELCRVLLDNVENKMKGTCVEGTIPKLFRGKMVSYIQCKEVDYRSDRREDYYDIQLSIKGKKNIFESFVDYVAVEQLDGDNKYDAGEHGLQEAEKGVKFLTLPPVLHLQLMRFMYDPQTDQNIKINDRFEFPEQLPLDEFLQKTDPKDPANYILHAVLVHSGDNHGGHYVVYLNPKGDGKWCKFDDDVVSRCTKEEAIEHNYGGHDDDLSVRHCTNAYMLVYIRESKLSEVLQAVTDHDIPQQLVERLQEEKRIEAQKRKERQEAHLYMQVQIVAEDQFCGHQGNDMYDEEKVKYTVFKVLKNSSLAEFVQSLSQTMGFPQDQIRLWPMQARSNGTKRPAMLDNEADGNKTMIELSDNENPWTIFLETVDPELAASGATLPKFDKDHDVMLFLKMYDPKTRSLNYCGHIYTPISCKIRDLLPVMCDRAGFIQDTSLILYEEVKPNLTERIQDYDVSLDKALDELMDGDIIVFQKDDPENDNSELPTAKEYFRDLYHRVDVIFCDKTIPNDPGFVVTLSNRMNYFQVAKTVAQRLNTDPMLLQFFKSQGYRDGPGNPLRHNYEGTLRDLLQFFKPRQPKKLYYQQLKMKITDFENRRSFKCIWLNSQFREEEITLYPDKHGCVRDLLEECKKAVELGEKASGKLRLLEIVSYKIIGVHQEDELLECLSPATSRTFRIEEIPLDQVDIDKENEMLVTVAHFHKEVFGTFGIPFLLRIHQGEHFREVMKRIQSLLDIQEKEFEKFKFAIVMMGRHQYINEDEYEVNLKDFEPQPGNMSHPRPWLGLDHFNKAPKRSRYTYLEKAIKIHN

What was measured:
[1] = target: T1, endogenous ARMC5 (human (endogenous in 786-O)) (UniProt Q96C12); test: co-IP; cell lysates in RIPA buffer incubated with primary antibody pre-absorbed protein G sepharose beads at 4°C overnight, washed with RIPA buffer, Western blot
T1 sequence: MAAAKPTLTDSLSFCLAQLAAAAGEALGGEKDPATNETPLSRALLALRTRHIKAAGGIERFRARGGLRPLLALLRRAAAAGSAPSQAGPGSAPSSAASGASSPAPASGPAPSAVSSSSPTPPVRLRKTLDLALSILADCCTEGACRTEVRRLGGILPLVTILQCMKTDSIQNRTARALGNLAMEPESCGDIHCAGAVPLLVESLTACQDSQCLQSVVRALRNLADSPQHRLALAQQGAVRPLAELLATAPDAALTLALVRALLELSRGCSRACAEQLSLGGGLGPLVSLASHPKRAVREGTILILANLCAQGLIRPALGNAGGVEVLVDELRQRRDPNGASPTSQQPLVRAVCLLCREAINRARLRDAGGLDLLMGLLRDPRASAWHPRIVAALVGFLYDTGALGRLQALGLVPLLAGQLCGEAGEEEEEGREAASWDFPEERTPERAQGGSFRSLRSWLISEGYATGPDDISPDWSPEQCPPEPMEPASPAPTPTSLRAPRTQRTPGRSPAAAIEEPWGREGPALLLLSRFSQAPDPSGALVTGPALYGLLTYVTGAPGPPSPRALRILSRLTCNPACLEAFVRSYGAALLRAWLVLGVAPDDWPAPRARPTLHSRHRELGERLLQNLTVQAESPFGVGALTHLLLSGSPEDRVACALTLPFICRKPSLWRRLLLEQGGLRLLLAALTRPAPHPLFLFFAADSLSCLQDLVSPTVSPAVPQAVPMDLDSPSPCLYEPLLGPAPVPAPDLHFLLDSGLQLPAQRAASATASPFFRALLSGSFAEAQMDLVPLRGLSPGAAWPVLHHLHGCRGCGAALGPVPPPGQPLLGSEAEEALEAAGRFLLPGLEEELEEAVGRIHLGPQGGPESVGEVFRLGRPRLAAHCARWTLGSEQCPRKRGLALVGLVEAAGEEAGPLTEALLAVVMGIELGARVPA

Flag-ARMC5 (human) = target: T2, Flag-ARMC5 (human) (UniProt Q96C12); test: as above
T2 sequence: T1 sequence

[2] = target: Myc-USP7 (full-length) (human) (UniProt Q93009); test: as above
[3] = target: endogenous USP7 (ubiquitin-specific processing protease 7) (human (endogenous in 786-O)) (UniProt Q93009); test: as above
GST-USP7 (human) = GST-USP7 (human) (UniProt Q93009); test: pull-down; GST or GST-USP7 retained on glutathione Sepharose beads, incubated 2 hours at 25°C with His-ARMC5, eluted at 100°C, Western blot; both purified

binding [1]: binds
binding (Flag-ARMC5 (human)): binds
Molecule: endogenous USP7 (ubiquitin-specific processing protease 7) (from UniProt Q93009 1-1102) (enzyme)

binding [2]: binds
binding [3]: binds
B1: endogenous ARMC5 (protein, UniProt Q96C12 1-935)
chain: T1 sequence

binding [2]: binds
B2: Flag-ARMC5 (protein, UniProt Q96C12 1-935)
chain: T1 sequence

binding (GST-USP7 (human)): binds
B3: His-ARMC5 (protein, UniProt Q96C12 1-935)
chain: T1 sequence
